# Measured values: publication PMC4339604
# B1: VvDELLA1 (protein, UniProt Q8S4W7 1-590)
# chain: MKREYHHPHHPTCSTSPTGKGKMWDADPQQDAGMDELLAVLGYNVKASDMAEVAQKLEQLEEVIVNAQEDGLSHLASETVHYNPSDLSNWLGSMLSEFNPTPNCALDNPFLPPISPLDYTNCSTQPKQEPSIFDSPSLDYDLKAIPGKALYSHIEQPPQQPPAPPLYQRDNKRLKPTTSATANSVSSVIGGWGVPTESARPVVLVDSQETGIRLVHTLMACAEAVQQENLKLAEALVKQIGFLAVSQAGAMRKVATYFAEGLARRIYRLYPDKPLDSSFSDILQMHFYETCPYLKFAHFTANQAILEAFEGKKRVHVIDFSMKQGMQWPALMQALALRPGGPPSFRLTGIGPPSTDNTDHLHEVGWKLAQLAETIHVEFEYRGFVANSLADLDASMLELRDGESVAVNSVFELHSLLARPGGIERVLSAVKDMKPDIVTIVEQEANHNGPVFLDRFTESLHYYSTLFDSLEGCGVSPVNTQDKLMSEVYLGQQICNVVACEGPERVERHETLAQWRARLGSAGFDPVNLGSNAFKQASMLLALFAGGDGYRVEENNGCLMLGWHTRPLIATSAWQLANKPALPSSTPASN
# How the values were obtained:
# VvSLY1a (Vitis vinifera) = assay: two-hybrid; S. cerevisiae L40; VvSLY1 as LexA DNA-BD bait, VvDELLA as GAL4 AD prey; growth on 3-AT and beta-galactosidase liquid assay
# VvSLY1b (Vitis vinifera) = assay: as above
binder,measurement,setting,value
B1,binding,VvSLY1a (Vitis vinifera),binds
same,binding,VvSLY1b (Vitis vinifera),binds

# These are yes or no findings as the source states them, for the method shown. Binding calls can cover weak binding; strength is not graded here.
